The list does not hold the whole screen: it is rich in T/C values a quarter to a half above the control, in often repeated tests (any T/C) and in doses without a T/C. Other doses and runs of a compound stand elsewhere. T/C is the treated group as % of the vehicle group. Some doses have a count of surviving animals in place of a T/C: the source files T/C as zero there, which appears to mark a toxic dose or a test without result, not a measured value. Some doses without a T/C left all or most animals alive at the check, yet need not have been tolerated: survival well below the control is almost never listed, so the zero probably covers shortened survival too. Counts of survivors are from the toxicity check (mostly the fifth day) where no day follows; animals may have died later. Schedules are NCI's codes, read here as Q, the interval in days (D) or hours (H), X, the number of doses. Some schedules carry Z or #; the key to these is not given. For survival time, the PubChem record calls one and a half times the control and up active, and a quarter to a half above the control has no call in these data; cut-offs in other NCI protocols can differ. Counts like (3×) say how often a value occurs here. Some entries hold several experiments; the results are listed from low to high. Some T/C values carry the count of animals alive at the toxicity check (mostly the fifth day); without a count, all were alive then.

The test system of the assay is BDF1 mice, P288 leukemia ip, survival T/C. Description: NCI In Vivo Anticancer Drug Screen. Data for tumor model P288 Lymphocytic Leukemia (intraperitoneal) in B6D2F1 (BDF1) mice. The following applies: higher T/C = longer survival. As to the method: The antitumor activity of compounds was measured in mice bearing transplantable tumors. Survival or tumor size were measured and the results are expressed as the measurement made in the treated group (T) divided by the measurement made in the vehicle treated control group (C). The tumor model used in this assay is P288 Lymphocytic Leukemia (intraperitoneal) in B6D2F1 (BDF1) mice

Setting [1] is: T/C endpoint: survival time, mean or median, dose: 5.0 mg/kg/injection, schedule: Q01DX010 (ip), vehicle: saline.
[2] abbreviates: T/C endpoint: survival time, mean or median, dose: 3.13 mg/kg/injection, schedule: Q01DX010 (ip), vehicle: saline.
The mark [3] stands for this setting: T/C endpoint: survival time, mean or median, dose: 250.0 mg/kg/injection, schedule: Q01DX010 (ip), vehicle: saline.
[4] abbreviates: T/C endpoint: survival time, mean or median, dose: 62.5 mg/kg/injection, schedule: Q01DX010 (ip), vehicle: saline.
Setting [5] is: T/C endpoint: survival time, mean or median, dose: 125.0 mg/kg/injection, schedule: Q01DX010 (ip), vehicle: saline.
[6] abbreviates: T/C endpoint: survival time, mean or median, dose: 500.0 mg/kg/injection, schedule: Q01DX010 (ip), vehicle: saline.
[7] abbreviates: T/C endpoint: survival time, mean or median, dose: 500.0 mg/kg/injection, schedule: Q01DX Z (ip), vehicle: carboxymethylcellulose (CMC).
The mark [8] stands for this setting: T/C endpoint: survival time, mean or median, dose: 1000.0 mg/kg/injection, schedule: Q01DX Z (ip), vehicle: carboxymethylcellulose (CMC).
[9] abbreviates: T/C endpoint: survival time, mean or median, dose: 36.0 mg/kg/injection, schedule: Q01DX010 (ip), vehicle: saline.
The mark [10] stands for this setting: T/C endpoint: survival time, mean or median, dose: 120.0 mg/kg/injection, schedule: Q01DX010 (ip), vehicle: saline.

As to `C[C@@H]1C[C@@H]([C@H](O)CC2CC(=O)NC(=O)C2)C(=O)[C@@H](C)C1`, the survivor count under setting [1] is on record as 6 of 6; the survivor count (T/C endpoint: survival time, mean or median, dose: 50.0 mg/kg/injection, schedule: Q01DX Z (ip), vehicle: water) was 4 of 6; the survivor count (T/C endpoint: survival time, mean or median, dose: 100.0 mg/kg/injection, schedule: Q01DX Z (ip), vehicle: water) is recorded as 0 of 6.

With `S=P(N1CCOCC1)(N1CC1)N1CC1`, the survivor count (T/C endpoint: survival time, mean or median, dose: 1.6 mg/kg/injection, schedule: Q01DX Z (ip), vehicle: carboxymethylcellulose (CMC)) was 5 of 6; the survivor count (T/C endpoint: survival time, mean or median, dose: 2.5 mg/kg/injection, schedule: Q01DX010 (ip), vehicle: saline) was 6 of 6; the survivor count under setting [1] is 6 of 6; the survivor count (T/C endpoint: survival time, mean or median, dose: 10.0 mg/kg/injection, schedule: Q01DX010 (ip), vehicle: saline) is on record as 6 of 6; the survivor count (T/C endpoint: survival time, mean or median, dose: 20.0 mg/kg/injection, schedule: Q01DX010 (ip), vehicle: saline) is 5 of 6; the survivor count (T/C endpoint: survival time, mean or median, dose: 50.0 mg/kg/injection, schedule: Q01DX Z (ip), vehicle: carboxymethylcellulose (CMC)) is 3 of 6.

On to `N#C[C@@H]1C2C=CC(CC2)[C@H]1C#N`, for which the survivor count is, setting by setting: (T/C endpoint: survival time, mean or median, dose: 0.5 mg/kg/injection, schedule: Q01DX010 (ip), vehicle: saline) 6 of 6; (T/C endpoint: survival time, mean or median, dose: 1.0 mg/kg/injection, schedule: Q01DX010 (ip), vehicle: saline) 6 of 6; (T/C endpoint: survival time, mean or median, dose: 2.0 mg/kg/injection, schedule: Q01DX010 (ip), vehicle: saline) 6 of 6. Also, the T/C (T/C endpoint: survival time, mean or median, dose: 250.0 micrograms/kg/injection, schedule: Q01DX010 (ip), vehicle: saline) is 127 % of control.

Take `CCCNc1ncnc2[nH]ncc12`: the T/C runs as follows: (T/C endpoint: survival time, mean or median, dose: 1.25 mg/kg/injection, schedule: Q01DX Z (ip), vehicle: water) 128 % of control; under setting [2], 105 % of control; (T/C endpoint: survival time, mean or median, dose: 6.25 mg/kg/injection, schedule: Q01DX010 (ip), vehicle: saline) 88 (2×), 90, 94 % of control; (T/C endpoint: survival time, mean or median, dose: 12.5 mg/kg/injection, schedule: Q01DX010 (ip), vehicle: saline) 94 (2×), 95, 100 % of control; (T/C endpoint: survival time, mean or median, dose: 25.0 mg/kg/injection, schedule: Q01DX010 (ip), vehicle: saline) 100, 110, 111, 117 % of control. In addition, the survivor count is listed as 6 of 6 under setting [2]; 6 of 6 (T/C endpoint: survival time, mean or median, dose: 5.0 mg/kg/injection, schedule: Q01DX Z (ip), vehicle: water); 6 of 6 (T/C endpoint: survival time, mean or median, dose: 20.0 mg/kg/injection, schedule: Q01DX Z (ip), vehicle: water); 6 of 6 (T/C endpoint: survival time, mean or median, dose: 40.0 mg/kg/injection, schedule: Q01DX Z (ip), vehicle: water); 0 of 6 (T/C endpoint: survival time, mean or median, dose: 160.0 mg/kg/injection, schedule: Q01DX Z (ip), vehicle: water).

For the compound `Nc1c(Br)cc2c(c1Br)Cc1cc([N+](=O)[O-])ccc1-2`, the survivor count under setting [3] is 5 of 6.

Consider `CCN(CC)c1ccc2cc3ccc(=[N+](CC)CC)cc-3oc2c1`, for which the survivor count reads like this: (T/C endpoint: survival time, mean or median, dose: 10.0 mg/kg/injection, schedule: Q01DX Z (ip), vehicle: carboxymethylcellulose (CMC)) 4 of 6; (T/C endpoint: survival time, mean or median, dose: 20.0 mg/kg/injection, schedule: Q01DX Z (ip), vehicle: carboxymethylcellulose (CMC)) 0 of 6.

On to `CS(=O)(=O)OCC(O)C(O)COS(C)(=O)=O` (centres undefined), for which the T/C (T/C endpoint: survival time, mean or median, dose: 400.0 mg/kg/injection, schedule: Q01DX010 (ip), vehicle: saline) was 127 % of control.

With `O=c1cn[nH]c(=O)[nH]1`, the T/C by setting is: under setting [4], 88 and 94 % of control; under setting [5], 88 and 100 % of control (2×); under setting [3], 88, 94, 100 % of control; under setting [6], 90 and 100 % of control (3×); under setting [7], 125 % of control. Moreover, the survivor count was 6 of 6 under setting [4], 6 of 6 under setting [5] and 6 of 6 under setting [3].

Turning to `O=C(Nc1ccc(NC2=NCCN2)cc1)c1ccc(C(=O)Nc2ccc(NC3=NCCN3)cc2)cc1`, the T/C reads like this: (T/C endpoint: survival time, mean or median, dose: 16.0 mg/kg/injection, schedule: Q01DX010 (ip), vehicle: saline) 131 % of control; (T/C endpoint: survival time, mean or median, dose: 16.0 mg/kg/injection, schedule: Q01DX Z (ip), vehicle: saline) 139 % of control.

Consider `CCOC(=O)NP(=O)(N1CC1(C)C)N1CC1(C)C` (centres undefined), for which the T/C (T/C endpoint: survival time, mean or median, dose: 125.0 mg/kg/injection, schedule: Q01DX Z (ip), vehicle: carboxymethylcellulose (CMC)) is 143 % of control. Further, the survivor count under setting [8] is recorded as 0 of 6.

For the compound `COc1cc2c(c(OC)c1OC)-c1ccc(OC)c(=O)cc1[C@@H](NC(C)=O)CC2`, where the note is “T/C endpoint: survival time, mean or median, dose: 0.06 mg/kg/injection, schedule: Q01DX Z (ip), vehicle: saline”, the T/C was 149 % of control. In addition, the survivor count is, setting by setting: (T/C endpoint: survival time, mean or median, dose: 0.25 mg/kg/injection, schedule: Q01DX Z (ip), vehicle: saline) 0 of 6; (T/C endpoint: survival time, mean or median, dose: 0.5 mg/kg/injection, schedule: Q01DX Z (ip), vehicle: saline) 0 of 6.

With `Cn1cnc([N+](=O)[O-])c1Sc1nc(N)nc2nc[nH]c12`, the survivor count is 6 of 6 (T/C endpoint: survival time, mean or median, dose: 1.0 mg/kg/injection, schedule: Q01DX Z (ip), vehicle: carboxymethylcellulose (CMC)); 6 of 6 (T/C endpoint: survival time, mean or median, dose: 2.0 mg/kg/injection, schedule: Q01DX Z (ip), vehicle: carboxymethylcellulose (CMC)); 6 of 6 (T/C endpoint: survival time, mean or median, dose: 4.0 mg/kg/injection, schedule: Q01DX Z (ip), vehicle: carboxymethylcellulose (CMC)); 6 of 6 (T/C endpoint: survival time, mean or median, dose: 8.0 mg/kg/injection, schedule: Q01DX Z (ip), vehicle: carboxymethylcellulose (CMC)).

For the compound `OCC1OC(n2cnc3c(Cl)ncnc32)C(O)C1O` (centres undefined), the T/C is, setting by setting: under setting [4], 88 % of control (2×); under setting [5], 88 % of control (2×); under setting [3], 88 and 94 % of control; under setting [6], 88 (2×) and 88 % of control [5 of 6 alive]. In addition, the survivor count is listed as 6 of 6 under setting [4]; 6 of 6 under setting [5]; 6 of 6 under setting [3]; 6 of 6 under setting [6]; 5 of 6 under setting [7]; 6 of 6 under setting [8].

In the case of `CN(Cc1cnc2nc(N)nc(N)c2n1)c1ccc(C(=O)N[C@@H](CCC(=O)O)C(=O)O)cc1`, the T/C reads like this: (T/C endpoint: median survival time, dose: 0.19 mg/kg/injection, schedule: Q01DX009 (ip), vehicle: sodium bicarbonate) 141 % of control; (T/C endpoint: survival time, mean or median, dose: 0.19 mg/kg/injection, schedule: Q01DX010 (ip), vehicle: other) 127 (2×) and 148 % of control; (T/C endpoint: survival time, mean or median, dose: 0.31 mg/kg/injection, schedule: Q01DX Z (ip), vehicle: other) 148 % of control; (T/C endpoint: survival time, mean or median, dose: 0.62 mg/kg/injection, schedule: Q01DX Z (ip), vehicle: other) 147 % of control; (T/C endpoint: survival time, mean or median, dose: 2.5 mg/kg/injection, schedule: Q01DX Z (ip), vehicle: other) 132 % of control; (T/C endpoint: survival time, mean or median, dose: 3.0 mg/kg/injection, schedule: Q01DX010 (ip), vehicle: other) 140 % of control. The T/C (T/C endpoint: survival time, mean or median, dose: 3.0 mg/kg/injection, schedule: Q01DX Z (ip), vehicle: other) is 126 % of control.

Turning to `CN(C)c1ccc(Nc2c3ccccc3nc3ccccc23)cc1`, the T/C is, setting by setting: (T/C endpoint: survival time, mean or median, dose: 25.0 mg/kg/injection, schedule: Q01DX Z (ip), vehicle: carboxymethylcellulose (CMC)) 126 % of control; under setting [9], 136 % of control; (T/C endpoint: survival time, mean or median, dose: 54.0 mg/kg/injection, schedule: Q01DX010 (ip), vehicle: saline) 142 % of control; under setting [10], 136 % of control.

Consider `NC(CCSCc1ccc(N(CCCl)CCCl)cc1)C(=O)O` (centres undefined), for which the T/C is, setting by setting: under setting [9], 144 % of control; under setting [10], 138 % of control.

The record behind these values is PubChem BioAssay AID216 (DTP/NCI, 2004).
